# In patent publication US12391903B2, “Cleaning liquid for excessive powder removal, method for producing three-dimensional molded object, and set of object molding liquid and cleaning liquid” (Ricoh Company, Ltd., priority 2022, dated 2025):
# Some compounds share one wording; it may come from a single statement.
# Assay: Three-point bending strength of unsintered body before and after immersion in cleaning liquid
# Settings: for Strength after being immersed, grade / Strength after being immersed (MPa): 30 min in cleaning liquid, ultrasonic bath
# [1] = unsintered body from object molding liquid 1
# [2] = unsintered body from object molding liquid 2
# [3] = unsintered body from object molding liquid 3
compound,measurement,setting,value
"C=C(C)[C@H]1CC=C(C)CC1 [Comparative Example 1, D-limonene, reference compound]","Strength after being immersed, grade",object molding liquid 1,D (−) (The bending strength was less than 2.7 MPa.)
same,Strength before being immersed (MPa),[1],5.2 MPa
same,"Strength before being immersed, grade",[1],A (The bending strength was 5 MPa or more.)
"CC1=CCC(=C(C)C)CC1 [Comparative Example 2, Terpinolene, reference compound]","Strength after being immersed, grade",object molding liquid 1,D (−) (The bending strength was less than 2.7 MPa.)
same,Strength before being immersed (MPa),[1],5.0 MPa
same,"Strength before being immersed, grade",[1],A (The bending strength was 5 MPa or more.)
"CC1=CCC2CC1C2(C)C (stereo not drawn) [Comparative Example 3, α-pinene, reference compound]","Strength after being immersed, grade",object molding liquid 1,D (−) (The bending strength was less than 2.7 MPa.)
same,Strength before being immersed (MPa),[1],5.0 MPa
same,"Strength before being immersed, grade",[1],A (The bending strength was 5 MPa or more.)
"C=C1CCC2CC1C2(C)C (stereo not drawn) [Comparative Example 4, β-pinene, reference compound]","Strength after being immersed, grade",object molding liquid 2,D (−) (The bending strength was less than 2.7 MPa.)
same,Strength before being immersed (MPa),[2],4.5 MPa
same,"Strength before being immersed, grade",[2],B (The bending strength was 3 MPa or more and less than 5 MPa.)
"CCCCCC [Comparative Example 5, Hexane, reference compound]","Strength after being immersed, grade",object molding liquid 2,D (−) (The bending strength was less than 2.7 MPa.)
same,Strength before being immersed (MPa),[2],4.5 MPa
same,"Strength before being immersed, grade",[2],B (The bending strength was 3 MPa or more and less than 5 MPa.)
"CC1COC(=O)O1 (centres unmarked) [Comparative Example 6, Propylene carbonate, reference compound]","Strength after being immersed, grade",object molding liquid 3,D (−) (The bending strength was less than 2.7 MPa.)
same,Strength before being immersed (MPa),[3],5.6 MPa
same,"Strength before being immersed, grade",[3],A (The bending strength was 5 MPa or more.)
"CCCCCCCCCC [Example 1, Decane]",Strength after being immersed (MPa),object molding liquid 1,5.4 MPa
same,"Strength after being immersed, grade",object molding liquid 1,A (The bending strength was 5 MPa or more.)
same,Strength before being immersed (MPa),[1],5.3 MPa
same,"Strength before being immersed, grade",[1],A (The bending strength was 5 MPa or more.)
"CCCCCCCCCCCC [Example 2, Dodecane]",Strength after being immersed (MPa),object molding liquid 1,5.2 MPa
same,"Strength after being immersed, grade",object molding liquid 1,A (The bending strength was 5 MPa or more.)
same,Strength before being immersed (MPa),[1],5.2 MPa
same,"Strength before being immersed, grade",[1],A (The bending strength was 5 MPa or more.)
"CCCCCCCCCCCCCC [Example 3, Tetradecane]",Strength after being immersed (MPa),object molding liquid 1,5.2 MPa
same,"Strength after being immersed, grade",object molding liquid 1,A (The bending strength was 5 MPa or more.)
same,Strength before being immersed (MPa),[1],5.1 MPa
same,"Strength before being immersed, grade",[1],A (The bending strength was 5 MPa or more.)
"CCCCCCCCCC [Example 5, Decane]",Strength after being immersed (MPa),object molding liquid 2,4.3 MPa
same,"Strength after being immersed, grade",object molding liquid 2,B (The bending strength was 3 MPa or more and less than 5 MPa.)
same,Strength before being immersed (MPa),[2],4.3 MPa
same,"Strength before being immersed, grade",[2],B (The bending strength was 3 MPa or more and less than 5 MPa.)
"CCCCCCCCCC [Example 7, Decane]",Strength after being immersed (MPa),object molding liquid 3,4.9 MPa
same,"Strength after being immersed, grade",object molding liquid 3,A (The bending strength was 5 MPa or more.)
same,Strength before being immersed (MPa),[3],5.1 MPa
same,"Strength before being immersed, grade",[3],A (The bending strength was 5 MPa or more.)
